Laboratory results taken from the supplement of paper PMC11006884.
Most of the targets with a hit are listed elsewhere, so they are rarer here than in the full data. This is a noisy data set. Only a part is listed here, and it is no random draw.

Sequences of proteins named here, by UniProt entry; tags and fusion partners are left off. A change or cut given only in a name is not applied to a line headed by its entry.
UniProt Q9P2J5: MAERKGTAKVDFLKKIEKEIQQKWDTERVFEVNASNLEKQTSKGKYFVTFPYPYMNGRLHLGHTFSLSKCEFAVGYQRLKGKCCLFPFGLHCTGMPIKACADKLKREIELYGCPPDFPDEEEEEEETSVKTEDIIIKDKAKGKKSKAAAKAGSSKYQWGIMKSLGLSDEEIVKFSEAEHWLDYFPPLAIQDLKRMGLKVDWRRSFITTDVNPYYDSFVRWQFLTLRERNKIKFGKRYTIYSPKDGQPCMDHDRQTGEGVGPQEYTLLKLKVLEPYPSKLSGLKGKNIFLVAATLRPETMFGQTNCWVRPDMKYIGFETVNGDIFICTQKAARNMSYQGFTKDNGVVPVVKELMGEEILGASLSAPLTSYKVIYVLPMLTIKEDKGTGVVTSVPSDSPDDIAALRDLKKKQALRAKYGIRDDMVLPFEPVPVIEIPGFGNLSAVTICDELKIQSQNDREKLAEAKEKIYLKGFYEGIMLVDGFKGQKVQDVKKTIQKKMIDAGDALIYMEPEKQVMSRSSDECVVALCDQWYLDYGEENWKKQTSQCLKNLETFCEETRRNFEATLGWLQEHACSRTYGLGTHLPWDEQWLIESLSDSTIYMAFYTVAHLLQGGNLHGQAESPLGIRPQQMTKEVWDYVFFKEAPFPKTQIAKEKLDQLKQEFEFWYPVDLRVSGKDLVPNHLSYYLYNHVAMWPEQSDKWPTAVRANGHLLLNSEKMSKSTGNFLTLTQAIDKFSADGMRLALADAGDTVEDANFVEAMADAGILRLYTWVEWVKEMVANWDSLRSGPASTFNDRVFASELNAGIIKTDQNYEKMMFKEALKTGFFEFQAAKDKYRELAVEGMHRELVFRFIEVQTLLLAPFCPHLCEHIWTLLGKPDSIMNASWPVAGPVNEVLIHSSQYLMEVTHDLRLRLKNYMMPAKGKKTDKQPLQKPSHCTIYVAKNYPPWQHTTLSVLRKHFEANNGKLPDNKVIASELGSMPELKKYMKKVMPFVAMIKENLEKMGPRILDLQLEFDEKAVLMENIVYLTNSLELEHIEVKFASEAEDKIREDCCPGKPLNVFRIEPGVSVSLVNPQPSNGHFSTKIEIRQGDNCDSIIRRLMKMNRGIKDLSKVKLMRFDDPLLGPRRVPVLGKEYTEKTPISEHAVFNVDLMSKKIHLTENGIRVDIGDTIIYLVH
UniProt Q9NZL9, whole entry, looked up: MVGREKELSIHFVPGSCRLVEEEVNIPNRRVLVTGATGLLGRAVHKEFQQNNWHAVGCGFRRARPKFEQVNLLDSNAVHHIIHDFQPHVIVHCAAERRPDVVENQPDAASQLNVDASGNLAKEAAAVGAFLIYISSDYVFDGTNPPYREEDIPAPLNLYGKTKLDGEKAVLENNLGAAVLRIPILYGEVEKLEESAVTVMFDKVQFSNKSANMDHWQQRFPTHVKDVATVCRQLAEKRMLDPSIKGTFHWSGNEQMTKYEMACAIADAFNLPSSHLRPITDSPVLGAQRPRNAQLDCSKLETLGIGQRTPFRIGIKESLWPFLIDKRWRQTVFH
UniProt Q9P0K7: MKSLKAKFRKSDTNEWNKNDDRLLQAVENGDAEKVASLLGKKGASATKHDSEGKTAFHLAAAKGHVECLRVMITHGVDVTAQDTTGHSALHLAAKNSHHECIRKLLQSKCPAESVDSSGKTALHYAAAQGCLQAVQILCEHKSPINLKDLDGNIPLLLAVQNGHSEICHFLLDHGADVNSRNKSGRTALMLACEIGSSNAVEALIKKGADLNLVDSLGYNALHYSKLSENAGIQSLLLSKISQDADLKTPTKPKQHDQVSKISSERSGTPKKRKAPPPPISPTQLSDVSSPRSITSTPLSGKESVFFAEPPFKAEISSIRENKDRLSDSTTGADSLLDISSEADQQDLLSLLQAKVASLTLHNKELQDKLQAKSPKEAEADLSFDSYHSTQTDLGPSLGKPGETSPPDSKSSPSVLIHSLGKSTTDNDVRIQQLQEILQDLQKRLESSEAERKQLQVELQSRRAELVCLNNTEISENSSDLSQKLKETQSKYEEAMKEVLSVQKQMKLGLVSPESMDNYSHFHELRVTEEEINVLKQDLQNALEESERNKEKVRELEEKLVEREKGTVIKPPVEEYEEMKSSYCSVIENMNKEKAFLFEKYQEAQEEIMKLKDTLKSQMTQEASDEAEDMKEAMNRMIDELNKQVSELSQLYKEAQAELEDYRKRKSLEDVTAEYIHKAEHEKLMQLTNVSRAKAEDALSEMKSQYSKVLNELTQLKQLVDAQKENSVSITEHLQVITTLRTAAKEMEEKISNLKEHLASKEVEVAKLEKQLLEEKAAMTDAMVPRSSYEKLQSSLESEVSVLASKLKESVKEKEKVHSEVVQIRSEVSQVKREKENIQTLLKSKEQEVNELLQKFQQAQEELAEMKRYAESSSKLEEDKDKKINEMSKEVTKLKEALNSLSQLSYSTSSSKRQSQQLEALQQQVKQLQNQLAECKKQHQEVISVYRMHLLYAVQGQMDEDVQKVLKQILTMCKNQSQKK
UniProt Q9NVI1: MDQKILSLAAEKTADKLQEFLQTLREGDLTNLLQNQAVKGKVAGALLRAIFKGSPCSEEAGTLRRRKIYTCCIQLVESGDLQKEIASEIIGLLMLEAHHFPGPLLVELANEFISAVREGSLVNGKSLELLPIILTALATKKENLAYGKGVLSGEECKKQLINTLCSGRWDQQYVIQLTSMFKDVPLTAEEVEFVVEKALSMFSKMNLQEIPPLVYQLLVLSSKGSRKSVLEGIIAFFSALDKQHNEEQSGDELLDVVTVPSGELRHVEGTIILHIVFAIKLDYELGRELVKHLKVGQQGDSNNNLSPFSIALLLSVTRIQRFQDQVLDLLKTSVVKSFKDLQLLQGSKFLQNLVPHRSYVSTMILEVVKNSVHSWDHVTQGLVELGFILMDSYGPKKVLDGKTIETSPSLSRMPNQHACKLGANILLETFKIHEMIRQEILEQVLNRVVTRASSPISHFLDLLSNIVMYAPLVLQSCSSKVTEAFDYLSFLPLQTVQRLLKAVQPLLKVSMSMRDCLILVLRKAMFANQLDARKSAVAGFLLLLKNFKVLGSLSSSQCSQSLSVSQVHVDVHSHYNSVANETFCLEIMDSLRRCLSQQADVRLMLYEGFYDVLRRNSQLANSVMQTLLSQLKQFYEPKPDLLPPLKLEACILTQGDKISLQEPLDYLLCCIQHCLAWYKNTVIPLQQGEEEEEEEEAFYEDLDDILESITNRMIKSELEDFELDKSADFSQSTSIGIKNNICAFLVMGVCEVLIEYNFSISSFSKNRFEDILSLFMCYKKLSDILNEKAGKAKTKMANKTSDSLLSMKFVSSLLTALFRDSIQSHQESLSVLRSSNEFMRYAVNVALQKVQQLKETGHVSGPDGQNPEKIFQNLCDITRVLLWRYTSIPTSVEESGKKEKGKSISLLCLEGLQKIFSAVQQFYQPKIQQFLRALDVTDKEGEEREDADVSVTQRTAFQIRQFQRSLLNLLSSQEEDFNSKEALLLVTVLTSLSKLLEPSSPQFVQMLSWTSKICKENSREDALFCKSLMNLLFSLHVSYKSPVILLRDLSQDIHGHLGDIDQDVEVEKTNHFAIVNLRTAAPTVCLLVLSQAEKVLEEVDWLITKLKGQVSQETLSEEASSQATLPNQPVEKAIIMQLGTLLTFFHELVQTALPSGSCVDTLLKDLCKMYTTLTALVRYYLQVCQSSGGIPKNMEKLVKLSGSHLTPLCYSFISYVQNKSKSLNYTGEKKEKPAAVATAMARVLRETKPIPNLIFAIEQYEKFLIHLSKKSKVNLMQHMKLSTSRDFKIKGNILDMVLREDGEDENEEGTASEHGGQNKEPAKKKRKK
UniProt Q9NYU2: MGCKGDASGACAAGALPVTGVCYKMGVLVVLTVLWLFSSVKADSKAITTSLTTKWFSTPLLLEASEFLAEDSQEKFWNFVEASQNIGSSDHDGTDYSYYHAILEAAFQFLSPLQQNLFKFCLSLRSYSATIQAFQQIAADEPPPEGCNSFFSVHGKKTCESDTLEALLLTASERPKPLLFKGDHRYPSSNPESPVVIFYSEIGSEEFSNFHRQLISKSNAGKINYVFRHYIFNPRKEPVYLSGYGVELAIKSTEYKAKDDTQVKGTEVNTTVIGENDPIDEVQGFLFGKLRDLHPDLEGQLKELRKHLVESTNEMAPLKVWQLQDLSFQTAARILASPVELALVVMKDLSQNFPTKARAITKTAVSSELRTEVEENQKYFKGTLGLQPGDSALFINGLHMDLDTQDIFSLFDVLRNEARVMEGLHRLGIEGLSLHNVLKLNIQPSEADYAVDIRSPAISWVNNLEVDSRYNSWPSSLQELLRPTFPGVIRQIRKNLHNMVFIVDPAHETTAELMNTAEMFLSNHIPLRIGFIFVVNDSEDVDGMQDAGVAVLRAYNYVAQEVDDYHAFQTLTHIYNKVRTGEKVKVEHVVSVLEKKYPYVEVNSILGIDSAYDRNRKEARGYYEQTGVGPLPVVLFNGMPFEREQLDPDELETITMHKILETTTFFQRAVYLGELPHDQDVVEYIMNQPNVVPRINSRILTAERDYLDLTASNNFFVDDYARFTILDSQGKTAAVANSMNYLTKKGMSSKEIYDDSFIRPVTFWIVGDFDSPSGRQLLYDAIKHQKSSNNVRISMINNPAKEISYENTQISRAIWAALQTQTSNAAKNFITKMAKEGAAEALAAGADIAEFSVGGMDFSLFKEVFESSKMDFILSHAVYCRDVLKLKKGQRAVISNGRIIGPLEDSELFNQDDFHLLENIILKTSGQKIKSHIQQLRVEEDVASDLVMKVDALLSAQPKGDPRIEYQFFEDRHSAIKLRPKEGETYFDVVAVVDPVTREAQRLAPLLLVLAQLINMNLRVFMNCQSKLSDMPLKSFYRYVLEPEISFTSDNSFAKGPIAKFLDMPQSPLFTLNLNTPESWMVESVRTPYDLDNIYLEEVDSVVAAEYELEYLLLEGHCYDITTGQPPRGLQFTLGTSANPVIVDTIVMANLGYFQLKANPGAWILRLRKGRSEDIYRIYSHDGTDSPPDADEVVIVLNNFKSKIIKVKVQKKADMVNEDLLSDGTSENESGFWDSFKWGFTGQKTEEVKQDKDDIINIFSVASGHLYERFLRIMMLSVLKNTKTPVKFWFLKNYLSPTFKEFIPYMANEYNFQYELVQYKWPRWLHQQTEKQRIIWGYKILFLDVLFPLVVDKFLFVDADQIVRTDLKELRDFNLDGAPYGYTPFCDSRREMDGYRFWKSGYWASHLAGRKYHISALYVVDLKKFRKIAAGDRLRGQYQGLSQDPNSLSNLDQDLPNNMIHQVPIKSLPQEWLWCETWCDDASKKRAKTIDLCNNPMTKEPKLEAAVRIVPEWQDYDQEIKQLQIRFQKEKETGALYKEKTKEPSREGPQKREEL
UniProt Q9NZC7: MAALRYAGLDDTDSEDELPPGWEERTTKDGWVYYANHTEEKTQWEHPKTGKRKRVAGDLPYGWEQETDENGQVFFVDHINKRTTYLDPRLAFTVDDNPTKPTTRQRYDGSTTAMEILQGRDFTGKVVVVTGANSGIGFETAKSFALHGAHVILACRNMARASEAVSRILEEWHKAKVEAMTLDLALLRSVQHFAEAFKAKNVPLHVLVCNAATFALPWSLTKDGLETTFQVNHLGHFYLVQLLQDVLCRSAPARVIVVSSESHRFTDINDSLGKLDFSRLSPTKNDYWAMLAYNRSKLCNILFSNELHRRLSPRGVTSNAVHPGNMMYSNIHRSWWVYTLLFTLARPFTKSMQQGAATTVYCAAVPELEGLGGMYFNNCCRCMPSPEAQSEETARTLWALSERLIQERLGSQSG
UniProt Q9UBB6: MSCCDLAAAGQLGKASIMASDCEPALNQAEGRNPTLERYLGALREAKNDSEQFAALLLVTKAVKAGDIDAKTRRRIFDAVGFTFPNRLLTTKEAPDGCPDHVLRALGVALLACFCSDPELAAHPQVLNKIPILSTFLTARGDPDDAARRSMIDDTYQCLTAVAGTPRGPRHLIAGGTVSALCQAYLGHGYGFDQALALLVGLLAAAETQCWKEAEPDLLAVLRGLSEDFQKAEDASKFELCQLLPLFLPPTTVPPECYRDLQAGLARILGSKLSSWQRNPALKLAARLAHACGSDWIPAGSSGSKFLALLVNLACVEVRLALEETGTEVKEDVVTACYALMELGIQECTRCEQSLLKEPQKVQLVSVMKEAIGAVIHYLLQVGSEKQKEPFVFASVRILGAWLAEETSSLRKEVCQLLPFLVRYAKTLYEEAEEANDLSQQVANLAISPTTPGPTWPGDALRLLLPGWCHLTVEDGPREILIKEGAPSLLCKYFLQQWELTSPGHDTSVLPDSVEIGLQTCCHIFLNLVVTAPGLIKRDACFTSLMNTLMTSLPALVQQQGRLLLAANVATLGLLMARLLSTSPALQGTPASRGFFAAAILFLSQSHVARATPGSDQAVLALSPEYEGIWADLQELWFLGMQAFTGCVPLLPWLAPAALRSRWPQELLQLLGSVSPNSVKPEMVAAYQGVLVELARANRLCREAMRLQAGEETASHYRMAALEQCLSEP

compound: COC(=O)/C=C/c1ccccc1 [methyl cinnamate]; assay: log2 ratio of iodoacetamide-alkyne labeling of the cysteine site, DMSO over compound (competition); higher = stronger covalent engagement of the cysteine by the compound, active = 1 or more; conditions: 500 µM; treatment time 1 h; system: HEK293T cell lysate
Procedure, shortened: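 HEK293T lysate (2 mg/mL) was treated with DMSO or electrophile (500 µM, 1 h, ambient temperature), then iodoacetamide alkyne (1 h), clicked to sCIP-TMT reagents, pooled, trypsin-digested overnight at 37 °C, streptavidin-enriched and acid-eluted. Peptides were run on Orbitrap Eclipse LC-MS/MS with FAIMS and quantified in FragPipe. The log2 competition ratio per cysteine is mean control-channel over mean compound-channel reporter intensity. Duplicate channels and three replicates were used, and cysteines quantified in only one replicate were excluded.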

log2 ratio of iodoacetamide-alkyne labeling, inactive:
LARS C522 (UniProt Q9P2J5) -0.214
MAT2B C17 (UniProt Q9NZL9) 0.247
UniProt Q9UBD5_C159 0.679
RAI14 C110 (UniProt Q9P0K7) 0.206
NDUFB11 C141 (UniProt Q9NX14) -0.0887
TES C46 (UniProt Q9UGI8) -0.132
ANKFY1 C1156 (UniProt Q9P2R3) 0.144
SACS C3756 (UniProt Q9NZJ4) 0.159
UniProt Q9P260_C624 -0.151
UniProt Q9NYP9_C107 0.154
ABCF2 C411 (UniProt Q9UG63) 0.319
GNL3L C518 (UniProt Q9NVN8) 0.335
FANCI C1209 (UniProt Q9NVI1) -0.0569
TBC1D13 C387 (UniProt Q9NVG8) 0.151
LIMD1 C305 (UniProt Q9UGP4) 0.268
SLAIN2 C306 (UniProt Q9P270) 0.269
DAXX C720 (UniProt Q9UER7) 0.494
UniProt Q9NYV4_C1039 0.00388
FAM120A C279 (UniProt Q9NZB2) -0.204
TES C238 (UniProt Q9UGI8) 0.0473
ASF1B C189 (UniProt Q9NVP2) -0.224
ERAP1 C486 (UniProt Q9NZ08) 0.204
UniProt Q9NYU2_C1386 0.17
BCCIP C141 (UniProt Q9P287) 0.156
PHRF1 C878 (UniProt Q9P1Y6) 0.151
UniProt Q9NXE8_C107 -0.242
LARS C527 (UniProt Q9P2J5) -0.214
UniProt Q9NVA2_C268 0.0897
PPP4R2 C296 (UniProt Q9NY27) 0.183
UniProt Q9UBD5_C363 0.11
WWOX C382 (UniProt Q9NZC7) 0.289
UniProt Q9NW64_C48 0.0437
VAPA C60 (UniProt Q9P0L0) -0.188
ADPRHL2 C287 (UniProt Q9NX46) -0.109
STK39 C525 (UniProt Q9UEW8) 0.37
TMEM161A C33 (UniProt Q9NX61) -0.0494
NCDN C22 (UniProt Q9UBB6) 0.384

Random excerpt: 3 entries already listed.
log2 ratio of iodoacetamide-alkyne labeling, inactive:
SLAIN2 C306 (UniProt Q9P270) 0.269
PPP4R2 C296 (UniProt Q9NY27) 0.183
PHRF1 C878 (UniProt Q9P1Y6) 0.151
